# According to PubChem BioAssay AID1671190 (National Center for Advancing Translational Sciences (NCATS), 2021):
# Sequences of proteins named here, by UniProt entry; tags and fusion partners are left off. A change or cut given only in a name is not applied to a line headed by its entry.
# UniProt P18054: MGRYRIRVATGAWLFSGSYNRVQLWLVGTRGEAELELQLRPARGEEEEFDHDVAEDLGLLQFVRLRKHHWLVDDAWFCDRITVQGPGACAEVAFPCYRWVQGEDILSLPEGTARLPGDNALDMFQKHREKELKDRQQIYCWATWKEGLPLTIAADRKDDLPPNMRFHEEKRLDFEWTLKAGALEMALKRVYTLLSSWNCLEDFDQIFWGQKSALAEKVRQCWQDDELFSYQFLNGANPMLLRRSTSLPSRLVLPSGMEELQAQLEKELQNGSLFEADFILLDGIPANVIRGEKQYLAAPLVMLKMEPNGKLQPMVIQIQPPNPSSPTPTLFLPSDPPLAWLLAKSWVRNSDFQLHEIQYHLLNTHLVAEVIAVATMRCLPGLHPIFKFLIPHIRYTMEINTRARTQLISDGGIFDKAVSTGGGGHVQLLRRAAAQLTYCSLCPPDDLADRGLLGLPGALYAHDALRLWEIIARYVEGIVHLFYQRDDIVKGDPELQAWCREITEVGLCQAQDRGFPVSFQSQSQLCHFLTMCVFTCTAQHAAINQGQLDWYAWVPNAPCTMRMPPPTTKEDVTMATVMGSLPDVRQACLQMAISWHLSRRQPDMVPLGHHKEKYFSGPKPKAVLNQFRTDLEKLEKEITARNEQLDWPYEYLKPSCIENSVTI
# The campaign covered roughly 580,000 compounds. About 6,100 (1.1%) were called active. Inconclusive results, whose numbers are uncertain, are shown with a selection of clear calls. The call rests on the fitted dose curve; in most records, active means well fitted inhibition curve with a large enough effect; inconclusive means small, poorly fitted or top-dose-only effect, or another doubt; inactive means no such curve, though single readings can be large or run the other way. A potency beside an inconclusive call is a rough fit, not a confirmed value.
# Target: Polyunsaturated fatty acid lipoxygenase ALOX12 (Homo sapiens) (UniProt P18054)
# Assay: Primary qHTS assay for inhibitors of human arachidonate 12S-lipoxygenase (ALOX12): Round 2
# Settings: purified 12hLO, xylenol orange hydroperoxide absorbance; activity change, negative = inhibition: at 108 µM (top of the series) unless noted
# How it was run: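 Purified human 12hLO (150 nM final) in 25 mM Hepes, 0.01% Triton X-100, pH 7.0 was preincubated 15 min at room temperature with compound. Then 40 uM arachidonic acid was added, 30 min. Hydroperoxide was read by Fe-XO absorbance ratio 573/405 nm.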
# On the % scale 0 is the no-effect control and ±100 the full control effect; potency means the concentration at half of the fitted maximal effect.
Compound,Potency,"activity change, negative = inhibition"
CC(C)c1ccccc1NC(=O)c1ccc2ccccc2n1,"inconclusive: 4.47 µM [inhibitor, full curve, poor fit]",–
CCOc1cc(CNC(=O)c2ncoc2-c2ccc(OC)cc2)cc(OCC)c1OCC,inactive,–
COC(=O)c1c(CSc2ccc(Cl)cc2)noc1C(=O)NCc1ccco1,"inconclusive: 50.1 µM [inhibitor, partial curve, poor fit]",–
O=C(O)/C=C/C(=O)N1CCN(S(=O)(=O)c2cccc(C(F)(F)F)c2)CC1,"inconclusive: 50.1 µM [inhibitor, partial curve, poor fit]",–
Cc1ccc(Cl)cc1NC(=O)Cn1ccn2nc3c(c2c1=O)CCCCC3,"inconclusive: 14.1 µM [inhibitor, full curve]",–
NC(=S)Nc1ccc(Oc2ccc(NC(N)=S)cc2)cc1,"inconclusive: 44.7 µM [inhibitor, partial curve, poor fit]",–
Cc1ccc2c(c1)nnn2C1CCN(S(=O)(=O)c2ccc(C(=O)N3C(C)CCCC3C)cc2)CC1 (stereo not drawn),"inconclusive: 44.7 µM [inhibitor, partial curve, poor fit]",–
CC(=O)c1ccc(N2CCN(c3ccc4cc(S(=O)(=O)N5CCC(C)CC5)ccc4n3)CC2)cc1,"inconclusive: 112 µM [inhibitor, partial curve, poor fit]",–
Cc1ccc(OCCn2ccnc2)c([N+](=O)[O-])c1,"inconclusive: 6.31 µM [inhibitor, full curve, poor fit]",–
N#CC1=C(Nc2ccccc2)SC=C(c2ccccc2)N=C1N1CCOCC1,inactive,–
C[C@H](c1ccccc1)N1C[C@@H](COCc2ccccc2)Oc2cc(N3CC[C@H](O)C3)ccc2S1(=O)=O,inactive,–
COC(=O)[C@]1(Sc2ccccc2)CC(=O)N[C@@H]1c1ccccc1,inactive,–
OC(CN1CCN(Cc2ccccc2)CC1)c1ccc(Br)cc1 (stereo not drawn),"inconclusive: 39.8 µM [inhibitor, partial curve, poor fit]",–
CC(=O)N(/N=C/c1ccc([N+](=O)[O-])o1)c1nc2ccccc2c(=O)n1-c1ccccc1,"inconclusive: 31.6 µM [inhibitor, single point]",–
Cc1ccc(C(=O)NNc2c3ccccc3nc3ccccc23)cc1,inactive,–
COc1ccc2oc(=O)c(-c3csc(Nc4ccc(C)cc4)n3)cc2c1,inactive,–
O=C(c1ccc(Br)cc1)N(C1=NCCCCS1)c1ccccc1,"inconclusive: 100 µM [inhibitor, single point]",–
O=C1CCCN1c1ccc(S(=O)(=O)Nc2ccc3c(c2)OCCO3)cc1,"inconclusive: 39.8 µM [inhibitor, partial curve, poor fit]",–
N#C/C(=C/c1ccccc1OC(F)F)c1ccccn1,"inconclusive: 112 µM [inhibitor, partial curve, poor fit]",–
COC(=O)c1ccccc1NC(=O)c1cc2ccccc2o1,inactive,–
O=C(N1CCOCC1)N1CCCC1c1nnc2n1CCNC2 (stereo not drawn),"inconclusive: 3.98 µM [inhibitor, full curve, poor fit]",–

Compound,Potency,"activity change, negative = inhibition"
CC(=O)Nc1ccc(OS(=O)(=O)c2ccc(C)cc2C)cc1,"inconclusive: 50.1 µM [inhibitor, partial curve, poor fit]",–
CCOc1ccc(-n2ccn3c(SC(CC)C(=O)Nc4ccc(OC)cc4)nnc3c2=O)cc1 (stereo not drawn),"inconclusive: 2.24 µM [inhibitor, single point]",–
COc1ccc(N2CCN(C(=O)C3CCN(c4nc5ccc(C)cc5[nH]4)CC3)CC2)cc1,"inconclusive: 126 µM [inhibitor, partial curve, poor fit]",–
O=C(c1ccc(Br)cc1)N(Cc1cccc2[nH]ccc12)C1CC1,"inconclusive: 39.8 µM [inhibitor, partial curve, poor fit]",–
O=C(OCC(=O)N1CCCC1=O)c1cc(-c2ccco2)nc2ccccc12,active: 5.62 µM,–
COc1ccc(Br)cc1CN1CCN(Cc2c[nH]c3ccccc23)CC1,"inconclusive: 11.2 µM [inhibitor, full curve, poor fit]",–
COc1ccc(CCN2CCC(CNC(=O)c3cnn(-c4cccc(Cl)c4)c3C3CCN(C(=O)OC(C)(C)C)CC3)CC2)cc1,"inconclusive: 50.1 µM [inhibitor, partial curve, poor fit]",–
Cc1ccc(Cl)cc1NC(=O)C1CCCN1S(=O)(=O)c1ccc(-c2ccc(=O)[nH]n2)s1 (stereo not drawn),inactive,–
Cc1ccc(C(C(=O)NCC2CCCO2)N(C(=O)c2snc(C(N)=O)c2N)c2ccc3c(c2)OCCO3)cc1 (stereo not drawn),"inconclusive: 126 µM [inhibitor, partial curve, poor fit]",–
Cc1cc2oc(=O)cc(CN3CCCC3)c2cc1Cl,active: 6.31 µM,–
Cc1oc2cc(OCC(=O)Nc3ccccc3F)ccc2c(=O)c1Oc1ccc(F)cc1,inactive,–
CN1CCN(Cc2nc3c([nH]2)c(=O)[nH]c(=O)n3C)CC1,"inconclusive: 8.91 µM [inhibitor, partial curve, poor fit]",–
CN1C(=O)CSC1=Nc1cccc(Cl)c1,"inconclusive: 89.1 µM [inhibitor, single point]",–
C[C@@H]1[C@H](C)CC[C@]2(C(=O)O)CC[C@]3(C)C(=CC[C@@H]4[C@@]5(C)CC[C@H](O)C(C)(C)[C@H]5CC[C@]43C)[C@@H]12,"inconclusive: 0.314 µM [inhibitor, single point]",–
CN1CCC(N2CCN(C3CN(Cc4cn(Cc5cccc(C(F)(F)F)c5)nn4)S(=O)(=O)C3)CC2)CC1 (stereo not drawn),active: 5.62 µM,–
N#C/C(=C/c1cccc(NC(=O)c2ccc(Cl)cc2)c1)c1ccccn1,"inconclusive: 1.12 µM [inhibitor, full curve, poor fit]",–
Nc1ncnc2c1nc(-c1ccccc1)n2C1OC(CO)C(O)C1O (stereo not drawn),"inconclusive: 126 µM [inhibitor, single point]",–
COc1ccccc1-n1c(=O)c(C#N)c(-c2ccc([N+](=O)[O-])cc2)c2cc(C(=O)c3ccccc3O)cnc21,inactive,–
CC(C)(C)c1ccc(S(=O)(=O)N2CCC(CO)(CC3CCCCO3)CC2)cc1 (stereo not drawn),"inconclusive: 44.7 µM [inhibitor, partial curve, poor fit]",–
COCCCN1CC23C=CC(O2)C(C(=O)O)C3C1=O (stereo not drawn),inactive,–
O=C(c1cc2ccccc2[nH]1)N1CCC2(C1)NC(=O)N(Cc1ccccc1)C2=O (stereo not drawn),"inconclusive: 79.4 µM [inhibitor, partial curve, poor fit]",–

Compound,Potency,"activity change, negative = inhibition"
S=c1[nH]nc(Cc2ccc(Br)cc2)n1/N=C/c1ccc(Cl)cc1,"inconclusive: 35.5 µM [inhibitor, partial curve, poor fit]",–
CCC1(c2ccc(F)cc2)NC(=O)N(CC(=O)Nc2ccccc2Cl)C1=O (stereo not drawn),–,inconclusive: -30.1% [inhibitor]
CC1(C)Cc2c(cnn2-c2ccc(F)cc2)C(NC(=O)CCN2CCCC2=O)C1 (stereo not drawn),inactive,–
Cc1cccc2sc(N(CCN(C)C)C(=O)/C=C/c3cccs3)nc12,"inconclusive: 28.2 µM [inhibitor, partial curve]",–
CCN(Cc1ccccc1)c1ccc(/C=N/N=C(N)N)cc1,"inconclusive: 44.7 µM [inhibitor, partial curve, poor fit]",–
COc1cc(OC)cc(C(=O)N2CCN(C3CCC(C)CC3)CC2)c1 (stereo not drawn),"inconclusive: 2 µM [inhibitor, full curve]",–
CCOC(=O)Cc1csc(NC(=O)CSc2nnc(C)n2C)n1,inactive,–
COC(=O)C1(Cc2cc(-c3cccc(Br)c3)no2)CCN(C(=O)OC(C)(C)C)CC1,inactive,–
O=C(N/N=C\c1cccnc1)c1cc(-c2ccc(Cl)s2)[nH]n1,inactive,–
COc1ccc(OC)c(S(=O)(=O)N/N=C(/C)c2c[nH]c3ccccc23)c1,"inconclusive: 12.6 µM [inhibitor, full curve, poor fit]",–
CCOC(=O)[C@]12CCC=C1N(Cc1ccco1)C(=O)[C@H](CC(=O)N1CCN(C(=O)c3ccco3)CC1)C2,"inconclusive: 1.78 µM [inhibitor, partial curve, poor fit]",–
Cc1cccc(NC(=S)Nc2ccc(Oc3ccccc3)cc2)n1,active: 10 µM,–
COc1ccc(/C=C2\OC(=O)c3ccccc32)cc1OC,"inconclusive: 44.7 µM [inhibitor, full curve, poor fit]",–
COC(=O)c1cccc(CN2C(=O)SC(Nc3ccc(C)cc3)C2=O)c1 (stereo not drawn),"inconclusive: 112 µM [inhibitor, partial curve, poor fit]",–
OCc1ccc(CN2C[C@H](O)C[C@H]2c2nc(-c3cccnc3)no2)o1,inactive,–
CCS(=O)(=O)N1CCN(S(=O)(=O)c2ccc3ccccc3c2)CC1,inactive,–
Cc1ccc(C2C(C(=O)c3cc4ccccc4o3)=C(O)C(=O)N2CCN2CCOCC2)cc1 (stereo not drawn),"inconclusive: 44.7 µM [inhibitor, partial curve, poor fit]",–
Cc1cc(=O)n(CC(=O)Nc2ccc(Br)cc2)c(N2CCc3ccccc3C2)n1,"inconclusive: 35.5 µM [inhibitor, partial curve, poor fit]",–
COc1cc(OC)c(N(C)C(=O)c2sc3nc4n(c(=O)c3c2C)CCCCC4)cc1Cl,inactive,–
COc1ccc(NC(=O)N(C)C[C@H]2Oc3ccc(NS(=O)(=O)c4c(C)noc4C)cc3C(=O)N([C@H](C)CO)C[C@@H]2C)cc1,"inconclusive: 70.8 µM [inhibitor, partial curve, poor fit]",–
CCOC(=O)C1CCCCN1Cc1ccc(F)cc1 (stereo not drawn),"inconclusive: 0.398 µM [inhibitor, full curve, poor fit]",–

# Looked up above.
# O=C(N1CCOCC1)N1CCCC1c1nnc2n1CCNC2 (stereo not drawn) | Potency: inconclusive: 3.98 µM [inhibitor, full curve, poor fit]
# S=c1[nH]nc(Cc2ccc(Br)cc2)n1/N=C/c1ccc(Cl)cc1 | Potency: inconclusive: 35.5 µM [inhibitor, partial curve, poor fit]
# COc1cc(OC)cc(C(=O)N2CCN(C3CCC(C)CC3)CC2)c1 (stereo not drawn) | Potency: inconclusive: 2 µM [inhibitor, full curve]
# Cc1ccc(Cl)cc1NC(=O)C1CCCN1S(=O)(=O)c1ccc(-c2ccc(=O)[nH]n2)s1 (stereo not drawn) | Potency: inactive
